# Results taken from the supplement of paper PMC12067093, “Discovery and optimisation of a covalent ligand for TRIM25 and its application to targeted protein ubiquitination” (Chemical Science, 2025).
# Chains of the proteins cited; added tags and fusions are not shown. Lines headed by an entry give the natural chain unless they say otherwise; changes in a name come on top.
# UniProt Q9UBR2: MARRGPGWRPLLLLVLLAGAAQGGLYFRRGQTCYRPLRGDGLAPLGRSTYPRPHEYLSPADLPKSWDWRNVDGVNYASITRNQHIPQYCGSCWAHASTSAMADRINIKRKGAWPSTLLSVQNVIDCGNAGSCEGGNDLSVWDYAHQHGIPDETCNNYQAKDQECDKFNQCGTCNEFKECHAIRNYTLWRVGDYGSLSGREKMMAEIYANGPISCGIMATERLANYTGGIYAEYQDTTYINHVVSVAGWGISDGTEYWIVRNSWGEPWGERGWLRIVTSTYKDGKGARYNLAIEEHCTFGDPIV
# UniProt Q13619, whole entry, looked up: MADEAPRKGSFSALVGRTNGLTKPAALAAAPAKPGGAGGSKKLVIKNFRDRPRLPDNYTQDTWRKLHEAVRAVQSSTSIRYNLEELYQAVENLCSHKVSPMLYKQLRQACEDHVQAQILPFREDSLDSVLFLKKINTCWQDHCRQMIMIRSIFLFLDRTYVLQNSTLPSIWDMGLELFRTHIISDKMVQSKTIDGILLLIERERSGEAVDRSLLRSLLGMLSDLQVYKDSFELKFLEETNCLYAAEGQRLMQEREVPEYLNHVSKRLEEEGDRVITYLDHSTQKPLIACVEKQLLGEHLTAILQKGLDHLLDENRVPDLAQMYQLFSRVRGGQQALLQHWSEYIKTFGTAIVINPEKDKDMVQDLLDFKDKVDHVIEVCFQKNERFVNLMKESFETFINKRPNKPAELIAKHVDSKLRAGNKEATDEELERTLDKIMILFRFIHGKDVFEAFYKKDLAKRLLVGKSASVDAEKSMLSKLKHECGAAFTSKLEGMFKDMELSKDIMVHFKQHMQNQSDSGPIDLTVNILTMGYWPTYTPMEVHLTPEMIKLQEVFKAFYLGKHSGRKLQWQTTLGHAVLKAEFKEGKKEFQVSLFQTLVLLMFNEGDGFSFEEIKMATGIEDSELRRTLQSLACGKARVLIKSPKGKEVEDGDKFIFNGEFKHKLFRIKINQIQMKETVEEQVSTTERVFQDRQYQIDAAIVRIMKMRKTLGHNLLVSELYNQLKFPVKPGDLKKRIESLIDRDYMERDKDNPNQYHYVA
# UniProt O75935, whole entry: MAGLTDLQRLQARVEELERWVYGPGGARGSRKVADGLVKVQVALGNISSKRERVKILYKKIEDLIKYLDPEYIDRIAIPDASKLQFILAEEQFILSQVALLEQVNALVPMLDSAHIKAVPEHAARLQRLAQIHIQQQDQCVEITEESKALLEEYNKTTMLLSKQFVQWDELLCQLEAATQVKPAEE
# UniProt Q13620, whole entry, looked up: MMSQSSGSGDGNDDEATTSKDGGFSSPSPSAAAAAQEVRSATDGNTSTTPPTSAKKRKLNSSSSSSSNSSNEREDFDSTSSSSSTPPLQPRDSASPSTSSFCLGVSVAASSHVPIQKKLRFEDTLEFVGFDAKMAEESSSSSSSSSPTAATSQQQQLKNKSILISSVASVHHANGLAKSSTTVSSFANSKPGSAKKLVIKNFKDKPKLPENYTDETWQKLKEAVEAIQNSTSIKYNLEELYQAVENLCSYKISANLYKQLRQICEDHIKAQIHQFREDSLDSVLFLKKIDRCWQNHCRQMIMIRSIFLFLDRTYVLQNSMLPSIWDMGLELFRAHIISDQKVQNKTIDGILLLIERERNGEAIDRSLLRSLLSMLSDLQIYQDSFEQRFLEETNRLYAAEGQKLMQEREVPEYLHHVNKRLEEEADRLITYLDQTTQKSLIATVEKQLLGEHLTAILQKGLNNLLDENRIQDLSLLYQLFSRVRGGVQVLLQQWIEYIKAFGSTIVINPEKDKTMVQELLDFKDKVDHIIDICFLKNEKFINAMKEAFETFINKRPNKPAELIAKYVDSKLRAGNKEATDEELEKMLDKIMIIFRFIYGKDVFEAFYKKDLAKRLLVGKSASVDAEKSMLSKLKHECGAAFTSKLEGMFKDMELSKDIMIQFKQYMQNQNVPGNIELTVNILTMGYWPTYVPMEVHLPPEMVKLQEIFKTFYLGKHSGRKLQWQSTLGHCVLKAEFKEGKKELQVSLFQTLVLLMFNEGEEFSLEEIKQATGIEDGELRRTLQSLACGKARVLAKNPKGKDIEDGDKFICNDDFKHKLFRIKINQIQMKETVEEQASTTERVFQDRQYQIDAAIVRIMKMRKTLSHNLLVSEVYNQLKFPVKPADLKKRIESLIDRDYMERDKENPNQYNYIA
# UniProt Q5QP82: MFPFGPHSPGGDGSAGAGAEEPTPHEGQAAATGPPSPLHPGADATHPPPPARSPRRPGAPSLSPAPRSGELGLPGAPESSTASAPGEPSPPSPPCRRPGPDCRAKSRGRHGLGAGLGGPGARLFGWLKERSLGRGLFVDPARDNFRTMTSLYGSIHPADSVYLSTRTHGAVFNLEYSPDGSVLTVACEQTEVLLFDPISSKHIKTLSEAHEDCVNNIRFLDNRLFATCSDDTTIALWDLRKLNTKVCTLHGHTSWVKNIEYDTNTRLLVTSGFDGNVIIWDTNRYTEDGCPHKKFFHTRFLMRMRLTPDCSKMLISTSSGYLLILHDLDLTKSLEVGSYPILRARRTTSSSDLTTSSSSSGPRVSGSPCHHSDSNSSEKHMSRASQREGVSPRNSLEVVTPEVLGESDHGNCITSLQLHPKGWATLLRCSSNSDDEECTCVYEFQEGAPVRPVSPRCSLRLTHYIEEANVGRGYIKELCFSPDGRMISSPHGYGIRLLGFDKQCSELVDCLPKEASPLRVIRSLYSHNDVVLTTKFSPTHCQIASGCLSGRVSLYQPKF
# UniProt Q13616, whole entry, looked up: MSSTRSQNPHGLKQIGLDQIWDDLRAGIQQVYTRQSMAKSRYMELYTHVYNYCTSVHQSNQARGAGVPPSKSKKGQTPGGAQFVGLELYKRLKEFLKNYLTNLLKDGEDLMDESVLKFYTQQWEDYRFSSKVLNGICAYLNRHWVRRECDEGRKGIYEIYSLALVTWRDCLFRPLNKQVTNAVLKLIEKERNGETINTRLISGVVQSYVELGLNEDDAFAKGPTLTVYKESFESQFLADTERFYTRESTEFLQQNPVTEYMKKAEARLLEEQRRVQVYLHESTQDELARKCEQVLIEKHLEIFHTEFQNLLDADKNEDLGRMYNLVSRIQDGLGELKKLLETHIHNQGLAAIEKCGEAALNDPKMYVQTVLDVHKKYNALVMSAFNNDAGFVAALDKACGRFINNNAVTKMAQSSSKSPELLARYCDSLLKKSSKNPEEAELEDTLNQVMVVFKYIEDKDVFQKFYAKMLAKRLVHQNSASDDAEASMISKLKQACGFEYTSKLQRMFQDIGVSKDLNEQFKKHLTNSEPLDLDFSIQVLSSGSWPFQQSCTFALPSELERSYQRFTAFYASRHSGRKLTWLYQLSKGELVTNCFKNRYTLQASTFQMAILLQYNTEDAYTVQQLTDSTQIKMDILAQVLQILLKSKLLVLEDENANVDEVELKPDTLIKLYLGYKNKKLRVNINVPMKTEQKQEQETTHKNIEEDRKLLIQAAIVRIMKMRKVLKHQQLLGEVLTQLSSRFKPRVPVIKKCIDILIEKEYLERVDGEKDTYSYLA
# UniProt Q16643: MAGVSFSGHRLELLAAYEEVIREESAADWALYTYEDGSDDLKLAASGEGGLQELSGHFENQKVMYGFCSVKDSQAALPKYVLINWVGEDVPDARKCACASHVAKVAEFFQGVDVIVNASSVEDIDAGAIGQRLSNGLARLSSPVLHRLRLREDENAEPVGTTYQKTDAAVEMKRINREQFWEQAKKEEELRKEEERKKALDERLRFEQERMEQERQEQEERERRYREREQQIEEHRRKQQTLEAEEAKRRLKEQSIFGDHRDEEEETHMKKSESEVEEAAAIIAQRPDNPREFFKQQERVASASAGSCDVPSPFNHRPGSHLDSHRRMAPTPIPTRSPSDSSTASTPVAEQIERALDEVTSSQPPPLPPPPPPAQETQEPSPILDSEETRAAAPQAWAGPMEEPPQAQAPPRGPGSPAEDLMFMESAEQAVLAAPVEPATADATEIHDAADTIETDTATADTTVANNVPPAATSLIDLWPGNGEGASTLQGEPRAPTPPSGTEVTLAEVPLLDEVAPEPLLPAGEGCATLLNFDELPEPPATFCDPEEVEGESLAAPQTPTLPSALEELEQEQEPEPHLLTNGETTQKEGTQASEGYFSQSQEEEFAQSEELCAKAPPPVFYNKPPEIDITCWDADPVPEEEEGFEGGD
# UniProt Q14203, whole entry, looked up: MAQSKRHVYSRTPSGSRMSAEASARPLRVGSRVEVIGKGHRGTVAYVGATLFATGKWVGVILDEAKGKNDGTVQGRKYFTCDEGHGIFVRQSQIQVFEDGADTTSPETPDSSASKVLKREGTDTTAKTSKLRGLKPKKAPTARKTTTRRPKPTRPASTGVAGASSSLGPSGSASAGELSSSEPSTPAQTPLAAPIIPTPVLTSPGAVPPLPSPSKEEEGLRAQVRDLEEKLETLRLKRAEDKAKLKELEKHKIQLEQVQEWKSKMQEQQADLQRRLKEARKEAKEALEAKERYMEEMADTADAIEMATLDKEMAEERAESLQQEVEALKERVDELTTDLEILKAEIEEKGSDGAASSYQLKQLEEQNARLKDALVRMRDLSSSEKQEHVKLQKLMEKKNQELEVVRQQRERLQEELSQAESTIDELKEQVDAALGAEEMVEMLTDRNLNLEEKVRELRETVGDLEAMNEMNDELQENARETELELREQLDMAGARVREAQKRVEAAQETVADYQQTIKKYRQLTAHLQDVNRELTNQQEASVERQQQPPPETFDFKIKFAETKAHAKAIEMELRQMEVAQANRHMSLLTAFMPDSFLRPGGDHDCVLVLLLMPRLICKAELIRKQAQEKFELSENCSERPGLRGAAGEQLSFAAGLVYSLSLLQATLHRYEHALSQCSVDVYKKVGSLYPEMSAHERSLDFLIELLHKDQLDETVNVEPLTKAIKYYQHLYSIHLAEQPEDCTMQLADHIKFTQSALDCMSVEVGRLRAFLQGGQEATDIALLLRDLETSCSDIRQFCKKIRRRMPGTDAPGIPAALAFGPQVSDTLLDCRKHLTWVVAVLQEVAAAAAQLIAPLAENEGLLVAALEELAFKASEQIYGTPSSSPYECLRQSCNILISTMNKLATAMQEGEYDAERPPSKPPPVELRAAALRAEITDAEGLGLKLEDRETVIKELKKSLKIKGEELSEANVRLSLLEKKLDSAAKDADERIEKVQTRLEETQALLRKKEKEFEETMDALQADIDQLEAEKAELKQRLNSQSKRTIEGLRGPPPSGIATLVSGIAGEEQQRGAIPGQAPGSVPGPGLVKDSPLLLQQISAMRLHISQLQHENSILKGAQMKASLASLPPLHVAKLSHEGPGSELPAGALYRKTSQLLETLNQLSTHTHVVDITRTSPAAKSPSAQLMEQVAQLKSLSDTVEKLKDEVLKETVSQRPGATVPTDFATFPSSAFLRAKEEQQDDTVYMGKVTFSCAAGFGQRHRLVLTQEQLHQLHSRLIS
# UniProt Q96EP5: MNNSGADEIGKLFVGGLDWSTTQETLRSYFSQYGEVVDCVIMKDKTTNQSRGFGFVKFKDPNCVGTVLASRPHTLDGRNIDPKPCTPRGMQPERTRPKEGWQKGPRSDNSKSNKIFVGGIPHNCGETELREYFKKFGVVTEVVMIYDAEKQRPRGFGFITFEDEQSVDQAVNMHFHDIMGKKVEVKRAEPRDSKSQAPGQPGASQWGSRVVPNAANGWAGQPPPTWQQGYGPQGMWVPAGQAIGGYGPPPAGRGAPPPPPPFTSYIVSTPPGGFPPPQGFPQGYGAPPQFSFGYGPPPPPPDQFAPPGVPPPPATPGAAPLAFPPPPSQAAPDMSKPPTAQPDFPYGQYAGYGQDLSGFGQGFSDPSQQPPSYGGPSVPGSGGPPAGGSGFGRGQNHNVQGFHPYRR
# UniProt P11182, whole entry, looked up: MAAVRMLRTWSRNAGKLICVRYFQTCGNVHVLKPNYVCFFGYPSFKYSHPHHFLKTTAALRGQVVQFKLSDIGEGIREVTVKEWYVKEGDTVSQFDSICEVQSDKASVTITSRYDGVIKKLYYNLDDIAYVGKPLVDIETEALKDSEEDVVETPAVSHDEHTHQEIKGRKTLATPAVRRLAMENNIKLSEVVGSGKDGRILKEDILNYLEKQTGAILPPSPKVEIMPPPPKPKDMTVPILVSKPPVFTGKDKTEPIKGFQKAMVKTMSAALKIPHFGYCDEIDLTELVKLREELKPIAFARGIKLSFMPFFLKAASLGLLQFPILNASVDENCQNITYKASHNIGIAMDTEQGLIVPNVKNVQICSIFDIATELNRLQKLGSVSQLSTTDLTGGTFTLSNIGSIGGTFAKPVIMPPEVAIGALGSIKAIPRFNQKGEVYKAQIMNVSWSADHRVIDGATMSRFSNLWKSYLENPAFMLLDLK
# The list shows a part of the results.
# Compound: CC1Cc2ccccc2N1C(=O)C1CCCN(C1)C(=O)CCl (mixture of isomers) [TRIM25 ligand 11 (diastereomer mixture)]
# Test: probe-labelled cysteine peptide fold change vs DMSO (competition) (log2 fold change); higher = less target engagement (more negative = stronger competition)
# Details: 10 µM; THP-1; incubation time: 4 h
# 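Further: competitive chemoproteomic profiling in live THP-1 cells with an iodoacetamide desthiobiotin (IA-DTB) probe, comparing probe-labelled peptide intensities in compound-treated cells against DMSO-treated controls.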
row,Target,probe-labelled cysteine peptide fold change
1,CTSZ_Q9UBR2_296_YNLAIEEHCTFGDPIV (UniProt Q9UBR2),0.0178
2,CUL4A_Q13619_94_YNLEELYQAVENLCSHK (UniProt Q13619),-0.12
3,DARS2_Q6PI48_202_MREYLCNLHGFVDIETPTLFK (UniProt Q6PI48),-0.00596
4,DBNL_Q9UJU6-3_256_NEQGSTCASLQESAVHPR (UniProt Q9UJU6),-0.0708
5,CYB5R3_P00387_204_DPDDHTVCHLLFANQTEK (UniProt P00387),-0.00817
6,DCTN3_O75935_140_LAQIHIQQQDQCVEITEESK (UniProt O75935),-0.13
7,CUL4B_Q13620_292+297_CWQNHCR (UniProt Q13620),-0.0789
8,CUL4A_Q13619_289_PLIACVEK (UniProt Q13619),0.0437
9,CYB5R3_P00387_284_DHLPPPEEEPLVLMCGPPPMIQYACLPNLDHVGHPTER (UniProt P00387),0.0327
10,DCAF10_Q5QP82_369_VSGSPCHHSDSNSSEK (UniProt Q5QP82),0.293
11,CUL1_Q13616_496_QACGFEYTSK (UniProt Q13616),-0.0802
12,DBN1_Q16643_96_CACASHVAK (UniProt Q16643),-0.0355
13,DCTN1_Q14203_742_YYQHLYSIHLAEQPEDCTMQLADHIK (UniProt Q14203),0.108
14,CYC1_P08574_139_HLVGVCYTEDEAK (UniProt P08574),0.183
15,DAZAP1_Q96EP5_124_IFVGGIPHNCGETELR (UniProt Q96EP5),0.128
16,DBT_P11182_99_EGDTVSQFDSICEVQSDK (UniProt P11182),-0.0268

# Reprinted at random: 2 entries already listed.
row,Target,probe-labelled cysteine peptide fold change
7,CUL4B_Q13620_292+297_CWQNHCR (UniProt Q13620),-0.0789
12,DBN1_Q16643_96_CACASHVAK (UniProt Q16643),-0.0355
